# Reference: patent publication US12054486B2, “Pyridine derivatives and their use as sodium channel activators” (Xenon Pharmaceuticals Inc., priority 2021, dated 2024)
# For at least one compound, name, drawing or mass did not settle the structure.
# Target: sodium channel isoforms of interest stably expressed in Human Embryonic Kidney Cells (voltage-gated sodium channel, particularly NaV1.1) (Homo sapiens, UniProt P35498)
# Experiment: automated planar patch clamp assay of sodium channel gating (area under the sodium current trace)
# Assay type: cell-based
# Settings: HEK cells, voltage step from −120 mV to 0 mV, increasing concentrations
# Text: A typical assay described in Crestey, F. et al., ACS Chem Neurosci (2015), Vol. 6, pp. 1302-1308, AA43279 (Frederiksen, K. et al., Eur J Neurosci (2017), Vol. 46, pp. 1887-1896) and Lu AE98134 (von Schoubyea, N. L. et al., Neurosci Lett (2018), Vol. 662, pp. 29-35) employs the use of automated planar patch clamp techniques to study the effects of the chemical agent on the gating of sodium channels. The sodium channel isoforms of interest are stably expressed in Human Embryonic Kidney Cells and the currents that flow through those channels in response to a depolarizing voltage clamp step from −120 mV to 0 mV are measured in the presence of increasing concentrations of the chemical agents. The area under the sodium current trace which correlates to the magnitude of sodium flux through the cell membrane is used to quantify the effects on gating of the channels. Other parameters that are measured in the assay include the peak current, time constant of open state inactivation and the voltage dependence of steady state inactivation properties. The concentration responses are used to determine potency of each chemical agents effects on modulating the sodium channel isoform gating. […]
smiles,measurement,value
"CC(=O)N1CCc2nc(-c3c(-c4ccccc4)ccnc3N3CC[C@H](F)C3)[nH]c2C1 [Example 37, (S)-1-(2-(2-(3-fluoropyrrolidin-1-yl)-4-phenylpyridin-3-yl)-3,4,6,7-tetrahydro-5H-imidazo[4,5-c]pyridin-5-yl)ethan-1-one]",Empirical Emax,++ (++ indicates a value from 2.0 up to 5.0 μM)
